Among the data in PMC4923905 are binding values, retold here.

In the test the target is T1, GST-MPK8 (Arabidopsis thaliana) (UniProt Q9LM33).
T1 sequence: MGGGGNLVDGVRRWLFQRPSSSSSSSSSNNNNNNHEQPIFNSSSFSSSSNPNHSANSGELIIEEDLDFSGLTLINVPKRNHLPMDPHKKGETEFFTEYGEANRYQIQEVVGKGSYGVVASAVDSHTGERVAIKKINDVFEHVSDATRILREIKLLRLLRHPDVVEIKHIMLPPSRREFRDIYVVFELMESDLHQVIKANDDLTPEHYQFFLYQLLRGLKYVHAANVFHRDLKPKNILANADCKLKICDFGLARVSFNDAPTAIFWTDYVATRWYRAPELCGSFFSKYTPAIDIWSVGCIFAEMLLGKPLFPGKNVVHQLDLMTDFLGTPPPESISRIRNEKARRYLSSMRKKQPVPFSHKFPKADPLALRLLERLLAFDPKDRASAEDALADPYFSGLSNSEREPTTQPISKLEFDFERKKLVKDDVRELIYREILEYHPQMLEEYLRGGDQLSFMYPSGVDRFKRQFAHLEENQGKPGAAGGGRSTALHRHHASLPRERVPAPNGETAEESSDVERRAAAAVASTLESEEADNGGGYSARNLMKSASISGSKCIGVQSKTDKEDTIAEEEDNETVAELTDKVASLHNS
In words: pull-down; prey LSF2-His6 and bait GST-MPK8 in binding buffer (50 mM Tris-HCl pH 7.5, 100 mM NaCl, 0.5% Triton X-100, 0.5 mM beta-mercaptoethanol), incubated with amylose resin beads at 25 °C for 1 h; western blot with anti-GST antibody; both purified. A general note: Immunoblotting shows a protein as a band on a membrane.

Results are given in words; binding and its absence hold for the method and conditions named. A result given as binding can be weak or reduced; the word gives no strength. Where a sequence is shown, tags or fusion partners need not be part of it.

“LSF2-His6 (Arabidopsis thaliana) (enzyme)”: the binding result is given as “binds”.
